Part of at least one peptide drawing is inferred or uncertain, most often the ends. Non-standard residues stand in square brackets, D forms with d. Residues, ends and D or L forms follow the SMILES beside them. pGlu = O=C1CC[C@@H](C(=O)O)N1
Assay: isoelectric point
Format: physicochemical

Question: Which “isoelectric point (pI)” value (listed as polypeptide hormone) does the source give for `C[C@H](NC(=O)[C@@H]1CCC(=O)N1)C(=O)N[C@@H](CCCCN)C(=O)N[C@@H](CO)C(=O)N[C@@H](CCC(N)=O)C(=O)NCC(=O)NCC(=O)N[C@@H](CO)C(=O)N[C@@H](CC(N)=O)C(=O)O` [thymic factor polypeptide hormone, pyroglutamyl -Ala-Lys-Ser-Gln-Gly-Gly-Ser-Asn] ([pGlu]AKSQGGSN-OH) here?
Answer: 7.5±0.1 pH

Question: And the “isoelectric point (pI)” value (listed as thymic factor)?
Answer: ~7.5 pH
